This passage reports binding results from paper PMC5766157.

Amino acid sequences for entries named in this document (tags omitted).
UniProt P13864: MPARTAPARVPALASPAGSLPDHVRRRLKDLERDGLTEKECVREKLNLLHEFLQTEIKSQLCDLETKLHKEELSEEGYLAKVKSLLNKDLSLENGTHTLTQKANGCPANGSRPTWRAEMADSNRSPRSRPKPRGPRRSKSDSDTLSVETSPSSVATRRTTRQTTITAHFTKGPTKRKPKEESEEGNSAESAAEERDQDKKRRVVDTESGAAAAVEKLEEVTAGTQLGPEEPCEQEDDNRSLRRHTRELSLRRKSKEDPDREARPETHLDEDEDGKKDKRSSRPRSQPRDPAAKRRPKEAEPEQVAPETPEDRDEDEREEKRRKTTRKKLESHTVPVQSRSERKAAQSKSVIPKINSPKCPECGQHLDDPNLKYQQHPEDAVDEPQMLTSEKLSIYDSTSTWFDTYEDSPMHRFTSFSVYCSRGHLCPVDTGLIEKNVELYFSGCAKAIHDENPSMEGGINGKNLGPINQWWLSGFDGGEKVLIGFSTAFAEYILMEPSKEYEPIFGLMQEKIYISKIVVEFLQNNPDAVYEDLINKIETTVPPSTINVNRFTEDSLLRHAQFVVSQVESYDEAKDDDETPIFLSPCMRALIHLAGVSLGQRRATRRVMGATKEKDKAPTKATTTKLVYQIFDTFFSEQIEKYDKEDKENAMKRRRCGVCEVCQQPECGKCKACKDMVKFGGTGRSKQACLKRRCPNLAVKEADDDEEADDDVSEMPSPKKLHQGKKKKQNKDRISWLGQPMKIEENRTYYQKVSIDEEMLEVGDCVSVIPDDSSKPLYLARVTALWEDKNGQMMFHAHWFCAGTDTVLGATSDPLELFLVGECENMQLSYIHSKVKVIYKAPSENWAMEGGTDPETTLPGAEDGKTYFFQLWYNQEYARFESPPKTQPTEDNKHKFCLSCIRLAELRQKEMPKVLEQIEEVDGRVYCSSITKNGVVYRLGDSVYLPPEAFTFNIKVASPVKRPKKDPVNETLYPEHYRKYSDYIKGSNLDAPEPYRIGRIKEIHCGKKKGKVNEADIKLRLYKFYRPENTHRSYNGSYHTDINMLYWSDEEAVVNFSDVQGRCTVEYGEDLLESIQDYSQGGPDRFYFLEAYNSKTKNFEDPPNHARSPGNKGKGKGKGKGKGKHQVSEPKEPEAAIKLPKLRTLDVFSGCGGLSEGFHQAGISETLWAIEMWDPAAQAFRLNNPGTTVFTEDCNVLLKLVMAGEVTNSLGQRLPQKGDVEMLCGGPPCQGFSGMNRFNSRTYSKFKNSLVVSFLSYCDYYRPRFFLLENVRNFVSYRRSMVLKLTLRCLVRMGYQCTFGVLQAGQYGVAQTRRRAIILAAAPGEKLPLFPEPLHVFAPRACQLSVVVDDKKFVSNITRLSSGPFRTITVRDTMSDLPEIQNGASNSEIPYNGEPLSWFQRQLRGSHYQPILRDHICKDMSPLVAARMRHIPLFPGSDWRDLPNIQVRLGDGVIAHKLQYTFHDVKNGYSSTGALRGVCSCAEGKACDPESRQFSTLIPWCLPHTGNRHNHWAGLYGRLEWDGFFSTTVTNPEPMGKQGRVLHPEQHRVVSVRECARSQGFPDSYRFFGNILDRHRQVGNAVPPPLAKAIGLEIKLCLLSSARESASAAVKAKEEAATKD

Results are given in words; binding and its absence hold for the method and conditions named. In cells and extracts the contact can be indirect. These calls come from enrichment with a bait or labelling near it, and not all partners need be listed.

In the experiment the target is FLAG-c-myc epitope-tagged DNMT1 (DNA methyltransferase 1) from Dnmt1^Tag/+ ES cells (mouse (endogenous in ES cells)) (UniProt P13864). Briefly: affinity purification with mass spectrometry; anti-FLAG M2 magnetic beads on the soluble nuclear fraction of Dnmt1^Tag/+ ES cells (300 mM NaCl, lysed with Universal Nuclease, 4°C), eluted with FLAG peptide; nano-LC-MS/MS; parental Dnmt1^+/+ cells as control.

B1: DROSHA (Class 2 RNase III enzyme, Microprocessor component) (enzyme, UniProt Q5HZJ0 1-1373)
chain: MQGNTCHRMSYHPGRGCPRGRGGHGARPSAPAFRPQNLRLLHPQQPPAQYQYEPPSAPSSSYSNSQAPSFMPPRPDFVPYPPPAAPSAQGPLPPCPVRPPYPNHQMRHPFPVPPCFPPMPPPMPCPNNPPASGAPPGQGTFPFMVPPPSMPHPPPPPVMPQQVNYQYPPGYSHSFPPPGFNSYQNNSSSFPPSANSSSTPHFRHLPPYSLPKAQNERRSPERLKHYDDHRHRDHSHGRGERHRSLERRERGRSPERRRPESRYRSDYDRGRTPPPRHRSYERSRERDRERHRHREARRSPSLERSYKKEYKRSGRSYALPVAPEPAGCTPELPGEMIKTTESWAPPPENVNHRSPSREKKRARWEEEKDRWSDSQGSGKEKNYTSIKEKEAEEVPPEKTEEEEEELLKPVWIRCTHSESYYSSDPMDQVGDSTVVGTSRLRDLYDKFEEELGNRQEKAKAARPPWEPPKTKLDEDLESSSESECETDDDSTCSSSSDSEVFDVIAEIKRKKAHPDRLHDELWYNDPGQMNDGPLCKCSAKARRTGIRHSIYPGEEAIKPCRPMTNNAGRLFHYRITVSPPTNFLTDRPTVIEYDDHEYIFEGFSMFAHAPLTNIPLCKVIRFNIDYTIHFIEEMMPENFCVKGLELFSLFLFRDILELYDWNLKGPLFEDSPPCCPRFHFMPRFVRFLPDGGKEVLSMHQILLYLLRCSKALVPEEEIANMLQWEELEWQKYAEECKGMIVTNPGTKPSSVRIDQLDREQFNPEVITFPIIVHFGIRPAQLSYAGDPQYQKLWKSYVKLRHLLANSPKVKQTDKQKLAQREEALQKIRQKNTMRREVTVELSSQGFWKTGIRSDVCQHAMMLPVLTHHIRYHQCLMHLDKLIGYTFQDRCLLQLAMTHPSHHLNFGMNPDHARNSLSNCGIRQPKYGDRKVHHMHMRKKGINTLINIMSRLGQDDPTPSRINHNERLEFLGDAVVEFLTSVHLYYLFPSLEEGGLATYRTAIVQNQHLAMLAKKLELDRFMLYAHGPDLCRESDLRHAMANCFEALIGAVYLEGSLEEAKQLFGRLLFNDPDLREVWLNYPLHPLQLQEPNTDRQLIETSPVLQKLTEFEEAIGVIFTHVRLLARAFTLRTVGFNHLTLGHNQRMEFLGDSIMQLVATEYLFIHFPDHHEGHLTLLRSSLVNNRTQAKVAEELGMQEYAITNDKTKRPVALRTKTLADLLESFIAALYIDKDLEYVHTFMNVCFFPRLKEFILNQDWNDPKSQLQQCCLTLRTEGKEPDIPLYKTLQTVGPSHARTYTVAVYFKGERIGCGKGPSIQQAEMGAAMDALEKYNFPQMAHQKRFIERKYRQELKEMRWEREHQEREPEEAEDIKK
Regarding B1, the binding result is “binds”.

B2: DGCR8 (double stranded RNA-binding protein, Microprocessor component) (protein, UniProt Q9EQM6 1-773)
chain: METYESPSPLPREPAGEAMMENRACPFQVLPHEQSPPPPLQTSSDAEVMDVGSGGDGQSEPPADDPFNFYGASLLSKGSFSKGRLLIDPNCSGHSPRTARHAPAVRKFSPDLKLLKDVKISVSFTESCRSKDRKVLYTGVERSTRPECGQLLSPVSGDVHACPFGGSVGNGVGLGGESADKKDEENELDQEKRVEYAVLDELEDFTDNLELDEEGTGGFTAKAIVQRDRVDEEALNFSYEDDFDNDVDALLEEGLCAPKKRRMEEKYGGDSDHPSDGETSVQPMMTKIKTVLKSRGRPPTEPLPDGWIMTFHNSGVPVYLHRESRVVTWSRPYFLGTGSIRKHDPPLSSIPCLHYKKMKDNEEREQNCDLAPSGEVSPVKPLGRSAELDFPLEEPDSMGGDSGSMDEKDPLGAEAAAGALGQVKAKVEVCKDESVDLEEFRNYLEKRFDFEQVTVKKFRTWAERRQFNREMKRKQAESERPILPANQKLITLSVQDAPTKKEFVINPNGKSEVCILHEYMQRVLKVRPVYNFFECENPSEPFGASVTIDGVTYGSGTASSKKLAKNKAARATLEILIPDFVKQTSEEKPKDSEELEYFNHISIEDSRVYELTSKAGLLSPYQILHECLKRNHGMGDTSIKFEVVPGKNQKSEYVMACGKHTVRGWCKNKRVGKQLASQKILQLLHPHVKNWGSLLRMYGRESSKMVKQETSDKSVIELQQYAKKNRPNLHILSKLQEEMKRLAAEREETRKKPKMSIVASAQPGGEPLCTVDV
On to B2, for which the binding result was “binds”.
